Patent US20120046217A1
These are yes or no findings as the source states them, for the method shown. In cells and extracts the contact can be indirect. Some entries that bind do so weakly or less than the wild type.

The chains behind the UniProt entries cited, without tags or fusion partners. Where a name states a change or a piece, a line headed by the entry shows the natural chain unless it says otherwise. Residues count along the entry.
UniProt P19438, residues 30-455: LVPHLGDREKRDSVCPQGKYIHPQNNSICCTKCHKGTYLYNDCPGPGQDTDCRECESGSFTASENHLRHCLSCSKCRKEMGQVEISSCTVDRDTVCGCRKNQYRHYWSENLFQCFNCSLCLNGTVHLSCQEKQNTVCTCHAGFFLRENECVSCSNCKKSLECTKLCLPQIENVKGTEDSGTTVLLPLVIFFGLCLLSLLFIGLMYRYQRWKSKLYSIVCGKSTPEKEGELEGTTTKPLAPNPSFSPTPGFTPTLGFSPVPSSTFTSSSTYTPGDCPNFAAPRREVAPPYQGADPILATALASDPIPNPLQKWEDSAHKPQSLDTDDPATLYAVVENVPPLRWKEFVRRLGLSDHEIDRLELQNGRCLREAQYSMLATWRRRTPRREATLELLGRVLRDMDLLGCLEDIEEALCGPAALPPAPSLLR
UniProt P24593: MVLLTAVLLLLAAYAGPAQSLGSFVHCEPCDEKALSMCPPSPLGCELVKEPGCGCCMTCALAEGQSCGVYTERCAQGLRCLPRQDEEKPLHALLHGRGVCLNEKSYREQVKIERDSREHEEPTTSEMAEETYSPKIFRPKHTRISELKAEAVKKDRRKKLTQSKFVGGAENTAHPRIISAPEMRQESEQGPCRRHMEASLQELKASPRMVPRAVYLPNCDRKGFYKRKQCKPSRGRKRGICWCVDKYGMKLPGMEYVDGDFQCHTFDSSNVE

Legend:
[1] = target: Flag-TNFR1 (UniProt P19438); experiment: co-immunoprecipitation with Flag antibody in conditioned medium of co-transfected HEK293 cells
[2] = target: Flag-TNFR1 (UniProt P19438); experiment: co-immunoprecipitation in media (FIG. 7)
[3] = target: Flag-TNFR1 (UniProt P19438); experiment: co-immunoprecipitation with TNFR1 antibody, Western blot with Myc antibody (FIG. 9)

| Substance | binding [1] | binding [2] | binding [3] |
| --- | --- | --- | --- |
| IGFBP5-Myc-His (from UniProt P24593 21-272) (ligand) | binds | binds | – |
| truncated mutant consisting of an IGFBP5 L-domain (from UniProt P24593 101-188) | – | – | binds |
